Results as given in publication PMC12040169 (PLOS Biology, 2025).
Some of the results follow.

test system: T1, CTL2-GFP (C. trachomatis L2/434/Bu, GFP-expressing); set-up: species or system HeLa; Intracellular C. trachomatis growth in HeLa cells, bulk GFP fluorescence relative to DMSO; settings: bulk GFP, single well; 28.5 h, 10 µM; inhibitor
T1 construct: L2/434/Bu, GFP-expressing

Row | SMILES | % of control remaining
1 | COC(=O)[C@@H](C)NC(=O)[C@H]1CN(C(=O)Nc2ccccc2)CCN1C(C)=O [CBK289627] | 143.884%
2 | CCN(CC)c1ccc(CN(CCCN(C)C)C(=O)NCc2ccc(F)cc2)cc1 [CBK159410] | 122.698%
3 | Cc1cccc(C)c1NC(=O)CSCC(=O)Nc1ccc2ccccc2c1 [CBK263274] | 134.323%
4 | Cn1ncnc1COc1ccc(S(=O)(=O)N2CCCCC2CN)cc1 (centres unmarked) [CBK304313C] | 127.119%
5 | CC(=O)N1CCCN(C(=O)Cn2cnc3ccc(F)cc3c2=O)CC1 [CBK245206] | 112.537%
6 | O=c1cc(CSc2nnc(-c3ccccc3)[nH]2)nc2[nH]cnn12 [CBK294398] | 142.419%
7 | O=C1N=C(NC2CC3CCC2C3)SC12CCCO2 (centres unmarked) [CBK116312] | 100.432%
8 | CCOc1ccc(Cl)cc1CN(C)C(=O)NC(C)CN1CCOCC1 (centres unmarked) [CBK307170] | 59.7389%
9 | CCCSc1scc2c1-c1n[nH]cc1CC2 [CBK017006] | 109.394%
10 | CC(=O)NCCSc1nccc(C(F)(F)F)n1 [CBK105301] | 120.936%
11 | O=C(CSc1nnc(-c2cccnc2)n1-c1ccc(Br)cc1)Nc1ccc2c(c1)OCO2 [CBK266153] | 161.768%
12 | CCOC(=O)NC(=O)c1ccccc1 [CBK012359] | 115.53%
13 | Cc1sc(NC(=O)COc2ccccc2)c(C(N)=O)c1-c1ccccc1 [CBK268164] | 112.801%
14 | Cc1csc2ncc(C(=O)Nc3ccccc3C#N)c(=O)n12 [CBK287458] | 139.361%
15 | CN(C)[C@H]1CCCC[C@@H]1OC(=O)c1ccc(C(F)(F)F)cc1 [CBK010550F] | 125.272%
16 | Clc1ccc(Nc2cncc(-c3cccnc3)n2)cc1 [CBK065234] | 151.563%
17 | c1ccc2c(-c3cn4ccnc4c(N4CCOCC4)n3)cccc2c1 [CBK037387] | 101.341%
18 | O=C(CSc1nc2ccccc2[nH]1)Nc1ccc(OC(F)(F)F)cc1 [CBK269711] | 153.638%
19 | O=C(O)c1ccc(CNCC(O)c2ccccc2)cc1 (centres unmarked) [CBK287243] | 112.321%
20 | O=C(c1ccc2c(c1)OCCO2)N1CCN(c2ncccn2)CC1 [CBK144519] | 101.318%
21 | FC(F)(F)c1ccnc(OCCNc2ccccc2)n1 [CBK115839] | 101.751%
22 | CC(C)C[C@@H]1N[C@H](C(=O)N2CCN(c3ncccn3)CC2)Cc2cn(C)c3cccc1c23 [CBK289421] | 106.033%
23 | CC(C)(N)C(=O)N1CC(C(=O)N2CC3(CCN(S(C)(=O)=O)CC3)c3ccccc32)C(c2cc3ccccc3o2)C1 (centres unmarked) [CBK136734T] | 111.187%
24 | CCC1c2ccc(C)n2CCN1Cc1cnc(C)n1C (centres unmarked) [CBK283038] | 123.301%
25 | CC(=O)c1nnn(-c2ccc(Cl)cc2Cl)c1C [CBK085972] | 176.996%
26 | CCOC(=O)c1ccc(NC(=O)C2CC(=O)NC(Nc3nc4ccccc4s3)=N2)cc1 (centres unmarked) [CBK264396] | 132.514%
27 | COC1C(O)C(CO)OC1n1cc(F)c(Oc2c(C)cc(C)cc2C)nc1=O (centres unmarked) [CBK201279] | 123.17%

Row | SMILES | % of control remaining
28 | COc1ccc(C)cc1S(=O)(=O)N(CC(=O)O)Cc1ccccc1 [CBK267847] | 74.9469%
29 | COc1cccc(CC(=O)N2CCCC2c2cc(Nc3nc(C)cc(C)n3)cc(C)n2)c1 (centres unmarked) [CBK285999] | 130.051%
30 | CCC(CC)C(=O)N(C)c1c(C)nc2ccc(C(=O)Nc3cccc(NS(C)(=O)=O)c3)cn12 [CBK146526] | 110.811%
31 | CC(C)c1nsc(NCCc2nnc3n2CCCC3)n1 [CBK306425] | 137.269%
32 | Clc1ccc(OCc2ccccc2)c(CNCCN2CCOCC2)c1 [CBK278162C] | 157.598%
33 | O=C(NCCN1CCOCC1)C1(c2ccccc2)CCCC1 [CBK149538] | 122.986%
34 | C[C@H]1[C@@H]2[C@@H](O)C([C@H](C)C(=O)NCc3ccccn3)CC[C@@]2(C)CC[C@@H]1NC(=O)C1CC1 (some centres unmarked) [CBK289445] | 156.796%
35 | COCCNc1nc(-c2cccc(-c3ccccc3)c2)cnc1N [CBK063474] | 146.333%
36 | CN(C)CCCOC(=O)C(C)(c1ccccc1)c1ccccc1 [CBK265325C] | 95.3032%
37 | Oc1nnc(-c2ccc(Cl)c(Cl)c2)n1C1CCCCC1 [CBK074888] | 90.9401%
38 | Cc1c(C)n2c(SCC(=O)N3CCCC3)nnc2[nH]c1=O [CBK287686] | 145.532%
39 | CC1CCN(CN2C(=O)C(=O)c3ccccc32)CC1 [CBK261304] | 100.666%
40 | Cc1ccc(-n2c3nc(=O)n(C)c(=O)c-3cc3ccccc32)cc1 [CBK288007] | 124.799%
41 | CCN1CC(C(=O)N2CCCCC2CN(C)C)CC1=O (centres unmarked) [CBK282056] | 109.834%
42 | CCOc1ccsc1C(=O)Nc1cc(C)ccn1 [CBK004029] | 27.0139%
43 | Cc1cc(NS(=O)(=O)c2ccc(Oc3ccccc3)cc2)n(C)n1 [CBK067249] | 116.922%
44 | Cc1nn(CC(=O)N(C(C)C)C(C)C)c(=O)c2cc3occc3n12 [CBK283655] | 96.3909%
45 | O=C(NCCC1=CCCCC1)Nc1ccc2ccccc2c1 [CBK044195] | 109.471%
46 | O=C(c1ccccc1)c1ccc(S(=O)(=O)N2CCCN(Cc3c[nH]nc3-c3ccccc3)CC2)cc1 [CBK062773] | 130.343%
47 | O=C1CC[C@@H](NCc2ccco2)[C@H](c2cc(F)cc(F)c2)N1 [CBK283127] | 113.734%
48 | O=c1[nH]c(CSc2nnc(COc3ccccc3)o2)nc2ccccc12 [CBK269869] | 127.812%
49 | C/C(=N/NC(=O)C(C)CN1CCOCC1)c1ccc(Cl)cc1 (centres unmarked) [CBK016045] | 120.475%
50 | CCOc1cccc(N2C(=O)CC(N3CCN(c4ccccn4)CC3)C2=O)c1 (centres unmarked) [CBK262829] | 111.658%
51 | O=C(CSc1ccc(Cl)cc1)NCCCN1CCOCC1 [CBK009390] | 89.0887%
52 | CCNC(=O)CN1CCN(c2nc(C(F)(F)F)ccc2C#N)CC1 [CBK305515] | 122.201%
53 | CNC(=O)c1ccc(-c2ccc(C)c(C)c2)nc1NCCOC [CBK105999] | 136.475%
54 | COc1ccc(NC(=O)CCCSc2nc(N)c3c(C)c(C)sc3n2)cc1 [CBK266547] | 142.95%

Looked up by compound from above:
Row | SMILES | % of control remaining
52 | CCNC(=O)CN1CCN(c2nc(C(F)(F)F)ccc2C#N)CC1 [CBK305515] | 122.201%
49 | C/C(=N/NC(=O)C(C)CN1CCOCC1)c1ccc(Cl)cc1 (centres unmarked) [CBK016045] | 120.475%
47 | O=C1CC[C@@H](NCc2ccco2)[C@H](c2cc(F)cc(F)c2)N1 [CBK283127] | 113.734%
29 | COc1cccc(CC(=O)N2CCCC2c2cc(Nc3nc(C)cc(C)n3)cc(C)n2)c1 (centres unmarked) [CBK285999] | 130.051%
33 | O=C(NCCN1CCOCC1)C1(c2ccccc2)CCCC1 [CBK149538] | 122.986%
38 | Cc1c(C)n2c(SCC(=O)N3CCCC3)nnc2[nH]c1=O [CBK287686] | 145.532%
35 | COCCNc1nc(-c2cccc(-c3ccccc3)c2)cnc1N [CBK063474] | 146.333%

Later entries.

Row | SMILES | % of control remaining
55 | CCNc1nc(C#N)nc(Nc2ccccc2)n1 [CBK027733] | 150.518%
56 | O=C(Nc1ccc2oc(-c3cccnc3)nc2c1)c1ccc(-c2ccc(OC(F)(F)F)cc2)o1 [CBK107713] | 105.819%
57 | CC(C)(C#N)c1ccccc1CN1CCCCC1c1[nH]ncc1C(N)=O (centres unmarked) [CBK304740] | 103.454%
58 | COc1ccc(NC(=O)c2csc(Nc3ccccc3)n2)cc1OC [CBK287840] | 93.3968%
59 | Cc1nc(C2CCN(C(=O)CCC3CCCO3)CC2)c2sccn12 (centres unmarked) [CBK282240] | 114.933%
60 | CCC(C)(C)C1CCc2c(sc(NC(=O)CN3CCOCC3)c2C#N)C1 (centres unmarked) [CBK270048] | 155.399%
61 | CCn1c2cc(C)oc2c2cnn(CC(=O)N3CCCCC3)c(=O)c21 [CBK284220] | 154.976%
62 | CCOc1ccccc1CCNS(=O)(=O)c1ccc(Cl)c(Cl)c1 [CBK043610] | 99.8973%
63 | CC(=O)Nc1ccc(NC(=O)CC2(CC(=O)O)CCCC2)cc1 [CBK296931] | 140.841%
64 | Cc1noc(C)c1NC(=O)c1ccc2ccccc2n1 [CBK200309] | 94.4896%
65 | O=C1COc2ccccc2CCCCC2(CCCN(C(=O)CCN3CCCC3=O)C2)CN1 (centres unmarked) [CBK291998] | 144.609%
66 | CSCCC(=O)N1CCN(C(=O)c2ccco2)CC1 [CBK144468] | 120.22%
67 | CCN(C(C)COC)S(=O)(=O)c1ccc(C(F)(F)F)nc1 (centres unmarked) [CBK304042] | 112.23%
68 | CC1CCCCN1CCCNC(=O)c1ccc(-c2nc(-c3ccc(C#N)cc3)cnc2N)cc1 (centres unmarked) [CBK107139] | 72.4689%
69 | FC(F)(F)c1cccc(CN2CCC(N3CCCCC3)CC2)c1 [CBK261855] | 100%
70 | CCC(=O)Nc1ccc(-c2csc(N(C)C)n2)cc1 [CBK304294C] | 80.0561%
71 | Cc1[nH]ncc1C(=O)N1CCn2cc(C(F)(F)F)nc2C1 [CBK282307] | 138.001%
72 | Cc1nc(NCCN2CCCC(CO)C2)nc2c1CCCC2 (centres unmarked) [CBK307430] | 141.459%
73 | CC(C(=O)NCCN1CCOCC1)N1c2cccc3cccc(c23)S1(=O)=O (centres unmarked) [CBK269911] | 116.658%
74 | COC(=O)c1ccccc1NC(=O)c1c(C)c(-c2ccc(C)cc2)nc2ccccc12 [CBK263641] | 100%
75 | Cc1ccc(C)c(OCCN(C)c2cc(C3CC(N)C3)nc(N)n2)c1 (centres unmarked) [CBK307695] | 56.5639%
76 | CN(C(=O)c1ccccc1C(=O)O)C1CC(C)(C)NC(C)(C)C1 [CBK287117] | 102.876%
77 | COC(=O)c1ccccc1NC(=O)CSc1nnc(-c2sc(N)nc2C)o1 [CBK266250] | 166.195%
78 | Cc1cccc(-c2ccc(CC3(C(N)=O)CCN(C(=O)CCc4ccccc4)CC3)cc2)c1 [CBK285796] | 38.9162%
79 | O=C(C1CCCN1)N1CC2(CCCC2)c2c(F)cccc21 (centres unmarked) [CBK304489] | 143.847%
80 | N=C1NC(=O)C(CC(=O)Nc2ccc(SC(F)F)cc2)S1 (centres unmarked) [CBK265648] | 100%
